Data as given in patent US6020166, “Nucleic acid encoding an altered telomere repeat binding factor 2” (The Rockfeller University).
For some assays here: The comparison behind a weaker result is the experiment's own reference, which may not be listed here. Tags and fusion partners may be left off the protein sequences shown. For some assays here: Construct, isoform or probe ends are uncertain for at least one entry. For some assays here: Negatives hold for the conditions tested.

Amino acid sequences for entries named in this document (tags omitted). A change or cut given only in a name is not applied to a line headed by its entry.
UniProt P54274: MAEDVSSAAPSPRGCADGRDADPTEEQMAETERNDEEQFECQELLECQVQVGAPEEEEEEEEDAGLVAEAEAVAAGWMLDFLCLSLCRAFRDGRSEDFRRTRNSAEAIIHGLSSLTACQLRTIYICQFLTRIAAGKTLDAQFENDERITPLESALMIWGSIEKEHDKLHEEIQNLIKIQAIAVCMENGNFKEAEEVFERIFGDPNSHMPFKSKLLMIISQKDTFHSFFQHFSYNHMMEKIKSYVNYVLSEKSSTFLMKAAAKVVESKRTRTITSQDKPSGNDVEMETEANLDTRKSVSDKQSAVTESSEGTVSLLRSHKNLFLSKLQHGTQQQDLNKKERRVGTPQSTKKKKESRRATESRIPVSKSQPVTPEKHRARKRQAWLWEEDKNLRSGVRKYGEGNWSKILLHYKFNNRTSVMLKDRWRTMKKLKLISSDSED

Tests used:
[1] = biological target: T1, TRF1 purified from HeLa (Homo sapiens) (UniProt P54274); experiment: EMSA; conditions: very weak binding; purified native protein; label: 32P
T1 sequence: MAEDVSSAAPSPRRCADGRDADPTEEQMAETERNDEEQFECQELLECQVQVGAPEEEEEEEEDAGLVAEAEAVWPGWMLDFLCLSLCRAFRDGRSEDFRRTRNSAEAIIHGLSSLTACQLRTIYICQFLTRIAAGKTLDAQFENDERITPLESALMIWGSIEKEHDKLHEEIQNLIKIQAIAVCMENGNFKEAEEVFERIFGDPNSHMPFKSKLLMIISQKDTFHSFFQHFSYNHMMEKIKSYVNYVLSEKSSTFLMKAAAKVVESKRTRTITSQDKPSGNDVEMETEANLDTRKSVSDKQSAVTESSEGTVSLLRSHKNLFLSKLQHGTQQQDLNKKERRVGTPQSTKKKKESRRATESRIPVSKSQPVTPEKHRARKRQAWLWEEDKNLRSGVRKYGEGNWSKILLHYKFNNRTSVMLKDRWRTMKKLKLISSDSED

[2] = biological target: T2, A-TRF1 66-385 in HeLa cells (Homo sapiens) (UniProt P54274); experiment: activity in cells; conditions: homogeneous nuclear distribution; displaces endogenous TRF1; protein in cells; protein details: FLAG; only the site is given
T2 sequence: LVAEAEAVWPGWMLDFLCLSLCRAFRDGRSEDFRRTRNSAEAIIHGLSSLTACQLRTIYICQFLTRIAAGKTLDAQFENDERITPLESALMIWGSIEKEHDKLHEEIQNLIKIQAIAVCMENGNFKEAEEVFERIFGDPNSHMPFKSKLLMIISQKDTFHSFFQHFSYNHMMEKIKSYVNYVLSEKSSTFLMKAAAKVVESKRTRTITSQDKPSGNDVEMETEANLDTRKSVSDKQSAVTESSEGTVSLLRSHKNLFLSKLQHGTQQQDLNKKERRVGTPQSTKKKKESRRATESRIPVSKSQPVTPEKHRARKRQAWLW

## TTAGGGTTAGGGTTAGGG (double strand) [[TTAGGG]3 permuted probes]
[1]
  binding result: binds more weakly

## TTAGGG (double strand) [telomeric DNA in cells]
[2]
  activity on this sequence: not active
